Laboratory results from the odorant receptor screen of Mainland et al. (2015).
Where “and” joins values, the source holds several entries; their conditions need not be identical. Identical values can stand only once. The list shows a part of the results. Each value is one well over the wells without odorant, computed here; the data are noisy.

Tests used:
Test in all cases: odorant receptor activation (CRE luciferase / Renilla) (fold of no-odor wells); higher = more activation
Details in all cases: 100 µM
[1] = tested on: OR2T10 clone 1047
[2] = tested on: OR2T11 C119R/Q309R clone 1050
[3] = tested on: OR2T11 C119R/Q309R clone 1051
[4] = tested on: OR2T2 clone 1561
[5] = tested on: OR2T29 clone 1545
[6] = tested on: OR2T3 clone 1397
[7] = tested on: OR2T34 clone 1049
[8] = tested on: OR2T35 V31I clone 1562
[9] = tested on: OR2T4 clone 1347
[10] = tested on: OR2T5 clone 1033
[11] = tested on: OR2T6 N21D/C23G/S243A clone 1432
[12] = tested on: OR2T8 clone 1576
[13] = tested on: OR2V1 clone 1718
[14] = tested on: OR2Y1 V200L clone 1069
[15] = tested on: OR2T5 clone 1495
[16] = tested on: OR2T5 clone 1496
[17] = tested on: OR2W1 D296N clone 1536
[18] = tested on: OR2W1 clone 1067
[19] = tested on: OR2W3 Indel clone 1491
[20] = tested on: OR2W5 clone 1506

Structure (SMILES)	odorant receptor activation [1]	odorant receptor activation [2]	odorant receptor activation [3]	odorant receptor activation [4]	odorant receptor activation [5]	odorant receptor activation [6]	odorant receptor activation [7]	odorant receptor activation [8]	odorant receptor activation [9]	odorant receptor activation [10]	odorant receptor activation [11]	odorant receptor activation [12]	odorant receptor activation [13]	odorant receptor activation [14]	odorant receptor activation [15]	odorant receptor activation [16]	odorant receptor activation [17]	odorant receptor activation [18]	odorant receptor activation [19]	odorant receptor activation [20]
CCCCCCC=O [heptaldehyde]	1.94 and 1.05	0.781 and 1.72	1.65 and 1.49	0.982	1.06 and 1.49	1.13 and 0.751	0.982 and 1.85	0.951	0.814 and 1.2 and 0.744	0.726 and 1.22	1.13 and 0.733	0.917	0.922	0.797 and 1.62						
CC12C=CCC1C1CCC3CC(=O)CCC3(C)C1CC2 (stereo not drawn) [androstenone]	1.41	1.29	2.07		1.13	0.899	1.54		1.49	1.19	0.985			1.95	0.997	1.22	0.73	0.488	0.978	1.22
CC12CCC(CC1)C(C)(C)O2 [cineole]	0.983	0.822	0.997	0.823	0.658	0.21	0.806	0.98	0.877	0.809	0.144	0.981	0.844	0.95	0.979	0.893	0.885	1.09 and 0.829	1	0.885
C=CCc1ccc(O)c(OC)c1 [eugenol]	2.83 and 1.57	1.68 and 1.54	1.06 and 1.25	1.19	1.54	1.21 and 1.4	1.99 and 1.41	1.23	2.69 and 1.6	0.998 and 1.78	1.62 and 1.27	0.956	1.15	0.6 and 1.42	1.46 and 1.09 and 1.14	1.26 and 1.13 and 1.42	2.1 and 1.83 and 1.49		2.17 and 0.859 and 1.26	1.28 and 0.959 and 1.07
C=CC(C)(O)CCC=C(C)C (stereo not drawn) [linalool]	1.19	0.997	1.48	1.02	1.21	0.925	0.966	0.192	0.687	1.18	0.995	0.902	1.15	1.36	1.24	1.08	1.39	1.01 and 1.82	1.06	0.91
CC(C)C(=O)O [isobutyric acid]	0.841	0.772	1.22	1.04	1.06 and 0.968	0.768	2.01	0.064	1.04 and 0.66	1.06	0.674	0.961	1.13	0.957	0.673 and 0.909	1.35 and 0.893	1.08 and 0.933	1.22 and 0.426	0.9 and 1.45	0.897 and 1.08
CC1COCc2cc3c(cc21)C(C)(C)C(C)C3(C)C (stereo not drawn) [galaxolide]	5.63	1.5	4.26			3.03	4.79	0.387 and 1.14		3.67	2.63		0.927 and 0.722	2.92	3.67 and 4.17		1.32 and 1.5		8.06 and 6.87	1.17 and 3.14
C=CCc1ccc(OC(C)=O)c(OC)c1 [eugenol acetate]	1.96	1.72	1.94	1.54	2.12	1.59	1.59	1.4	1.88	1.65	1.45	2.61	2.18	1.64	1.71	1.62	1.51	1.15 and 1.51	1.39	1.52
C=C(C)C1CCC2=CC(=O)CC(C)C2(C)C1 (stereo not drawn) [amyl laurate]				1.23				1.13				1.41	0.832					0.544		
C=CCSCC=C [diallyl sulfide]	0.991	0.996	0.951	0.907	1.43	1.05	1.06	0.856	1.12	0.901	1.21	0.77	0.81	1.11	1.07	1.38	1.23	1.61 and 1.06	0.928	0.917
O=C1CCCCC1 [Cyclohexanone]	1	0.55	0.973			0.758	0.399		1.1	0.858	1.01			0.741	0.736 and 0.98	0.933 and 1.15	0.791 and 1.25		1.07 and 0.913	0.761 and 0.78
O=CCc1ccccc1 [phenyl acetaldehyde]	1.48	1.45	0.812	3.06	1.25	1.64	1.33	1.44	1.17	1.16	1.37	1.53	1.45	1.18	1.18	1.51	0.958	0.804 and 1.21	0.894	1.07
CC(=O)c1ccccc1 [acetophenone]	1.23	1.15	1.17			0.878	1.16		2.98	0.757	1.08			0.542	0.967 and 0.83	1.16 and 0.845	1.79 and 1.53		1.1 and 0.568	0.853 and 0.699
C=C(C)C1CC=CCC1 (stereo not drawn) [r-limonene]	1.59 and 2.41	1.36 and 1.09	0.828 and 2.16	1.23	1.37	1.15 and 0.806	1.04 and 1.48	0.993	0.99 and 0.523	1.22 and 1.29	1.16 and 1.05	0.939	0.856	1.25 and 1.17	0.749 and 0.541 and 0.866	1.2 and 1.09 and 0.957	2.3 and 1.35 and 1.79		0.945 and 1.11 and 0.809	0.806 and 0.782 and 0.756
CC(C)C=O [isobutyraldehyde]	0.842	0.713	1.06	0.873	1.12 and 1.1	0.983	1.32	0.094	0.855 and 0.811	0.683	0.921	0.986	1.18	1.07	0.751 and 1.25	1.28 and 0.86	1.09 and 1.17		0.783 and 1.56	1.12 and 1.36
CCCCCC(C)=O [2-heptanone]	1.66	0.846	1.41			0.821	0.67		2.38	0.583	1.13			0.402	0.994 and 0.736	1.24 and 0.722	1.89 and 1.07		1.04 and 0.664	0.895 and 0.602
